Laboratory results from publication PMC9319246.
No constants are given. Whether binding was seen depends on the method and setting. Binding seen in cells or lysates may run through a third protein. A yes stands for co-enrichment or nearness to the bait. Other partners may have been found. Sequences can lack the tags named with a protein.

Protein sequences, listed by entry. Tags and fused reporters are not part of them.
UniProt Q5TZA2: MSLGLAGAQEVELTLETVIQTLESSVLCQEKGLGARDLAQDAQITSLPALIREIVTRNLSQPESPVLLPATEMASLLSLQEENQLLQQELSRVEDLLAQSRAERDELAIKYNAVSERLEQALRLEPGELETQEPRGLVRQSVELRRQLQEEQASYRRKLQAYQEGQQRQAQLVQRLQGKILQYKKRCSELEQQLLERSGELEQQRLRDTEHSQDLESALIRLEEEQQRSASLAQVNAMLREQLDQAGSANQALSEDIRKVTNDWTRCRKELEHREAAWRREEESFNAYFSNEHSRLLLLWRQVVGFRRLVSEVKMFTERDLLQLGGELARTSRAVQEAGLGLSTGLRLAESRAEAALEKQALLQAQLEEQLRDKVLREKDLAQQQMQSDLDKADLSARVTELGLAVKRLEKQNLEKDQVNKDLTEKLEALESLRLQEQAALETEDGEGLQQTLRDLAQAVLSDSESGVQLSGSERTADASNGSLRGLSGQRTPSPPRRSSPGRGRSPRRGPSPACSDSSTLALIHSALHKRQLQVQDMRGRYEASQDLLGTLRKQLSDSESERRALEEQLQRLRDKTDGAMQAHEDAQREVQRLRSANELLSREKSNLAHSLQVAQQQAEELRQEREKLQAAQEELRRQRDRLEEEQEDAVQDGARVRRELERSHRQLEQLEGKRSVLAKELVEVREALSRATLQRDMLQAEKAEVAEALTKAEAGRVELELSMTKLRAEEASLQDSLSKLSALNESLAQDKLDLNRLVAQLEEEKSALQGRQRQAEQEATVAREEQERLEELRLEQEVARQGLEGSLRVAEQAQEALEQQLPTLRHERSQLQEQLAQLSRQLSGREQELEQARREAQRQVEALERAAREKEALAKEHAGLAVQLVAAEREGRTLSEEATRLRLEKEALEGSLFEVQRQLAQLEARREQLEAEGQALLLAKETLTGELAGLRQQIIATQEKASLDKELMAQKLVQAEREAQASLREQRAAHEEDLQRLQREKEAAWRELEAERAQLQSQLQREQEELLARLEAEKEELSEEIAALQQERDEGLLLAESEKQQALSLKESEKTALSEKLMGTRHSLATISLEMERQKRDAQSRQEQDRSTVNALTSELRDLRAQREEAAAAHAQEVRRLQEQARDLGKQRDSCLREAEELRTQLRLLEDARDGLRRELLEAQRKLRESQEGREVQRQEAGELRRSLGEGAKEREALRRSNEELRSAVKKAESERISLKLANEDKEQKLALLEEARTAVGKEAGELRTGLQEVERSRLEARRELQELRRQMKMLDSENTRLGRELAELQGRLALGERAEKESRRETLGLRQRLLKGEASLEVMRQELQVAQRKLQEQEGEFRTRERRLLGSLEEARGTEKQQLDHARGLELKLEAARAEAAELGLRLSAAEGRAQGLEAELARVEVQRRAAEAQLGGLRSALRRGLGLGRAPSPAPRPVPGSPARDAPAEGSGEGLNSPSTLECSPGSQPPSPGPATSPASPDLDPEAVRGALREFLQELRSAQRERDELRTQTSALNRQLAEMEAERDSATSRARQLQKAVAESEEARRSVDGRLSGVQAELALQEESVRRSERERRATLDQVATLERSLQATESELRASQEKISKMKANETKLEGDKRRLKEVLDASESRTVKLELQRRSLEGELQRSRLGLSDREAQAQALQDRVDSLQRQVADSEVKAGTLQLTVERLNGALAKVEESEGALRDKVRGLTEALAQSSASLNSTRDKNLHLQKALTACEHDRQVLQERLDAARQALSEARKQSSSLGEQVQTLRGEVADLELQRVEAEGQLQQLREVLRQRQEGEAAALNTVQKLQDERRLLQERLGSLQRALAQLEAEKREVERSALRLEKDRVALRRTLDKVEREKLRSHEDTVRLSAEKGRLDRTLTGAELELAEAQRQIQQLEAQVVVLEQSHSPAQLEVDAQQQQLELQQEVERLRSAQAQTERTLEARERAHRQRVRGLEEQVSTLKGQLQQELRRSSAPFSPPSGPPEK

T1: endogenously FLAG-tagged TTC30B (human (endogenous in HEK293T)) (UniProt Q8N4P2)
T1 sequence: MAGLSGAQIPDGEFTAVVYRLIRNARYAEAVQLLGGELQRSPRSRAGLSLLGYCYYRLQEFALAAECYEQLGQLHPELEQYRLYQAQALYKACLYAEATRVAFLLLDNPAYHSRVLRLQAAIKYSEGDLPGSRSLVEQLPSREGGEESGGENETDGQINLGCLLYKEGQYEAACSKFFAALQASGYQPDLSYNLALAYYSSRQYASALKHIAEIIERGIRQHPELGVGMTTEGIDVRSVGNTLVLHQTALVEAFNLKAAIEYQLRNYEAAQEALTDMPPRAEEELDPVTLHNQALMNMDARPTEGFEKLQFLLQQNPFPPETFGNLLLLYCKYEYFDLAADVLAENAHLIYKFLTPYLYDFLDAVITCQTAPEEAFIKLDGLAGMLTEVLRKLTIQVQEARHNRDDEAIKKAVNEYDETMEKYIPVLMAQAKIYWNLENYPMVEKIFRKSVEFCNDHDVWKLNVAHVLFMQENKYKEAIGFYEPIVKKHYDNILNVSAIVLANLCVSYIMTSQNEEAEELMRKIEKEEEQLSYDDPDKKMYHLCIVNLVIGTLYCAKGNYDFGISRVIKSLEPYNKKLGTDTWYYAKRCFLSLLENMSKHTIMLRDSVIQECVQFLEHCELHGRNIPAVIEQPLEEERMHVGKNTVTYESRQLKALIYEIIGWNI

T2: endogenously FLAG-tagged TTC30A (human (endogenous in HEK293T)) (UniProt Q86WT1)
T2 sequence: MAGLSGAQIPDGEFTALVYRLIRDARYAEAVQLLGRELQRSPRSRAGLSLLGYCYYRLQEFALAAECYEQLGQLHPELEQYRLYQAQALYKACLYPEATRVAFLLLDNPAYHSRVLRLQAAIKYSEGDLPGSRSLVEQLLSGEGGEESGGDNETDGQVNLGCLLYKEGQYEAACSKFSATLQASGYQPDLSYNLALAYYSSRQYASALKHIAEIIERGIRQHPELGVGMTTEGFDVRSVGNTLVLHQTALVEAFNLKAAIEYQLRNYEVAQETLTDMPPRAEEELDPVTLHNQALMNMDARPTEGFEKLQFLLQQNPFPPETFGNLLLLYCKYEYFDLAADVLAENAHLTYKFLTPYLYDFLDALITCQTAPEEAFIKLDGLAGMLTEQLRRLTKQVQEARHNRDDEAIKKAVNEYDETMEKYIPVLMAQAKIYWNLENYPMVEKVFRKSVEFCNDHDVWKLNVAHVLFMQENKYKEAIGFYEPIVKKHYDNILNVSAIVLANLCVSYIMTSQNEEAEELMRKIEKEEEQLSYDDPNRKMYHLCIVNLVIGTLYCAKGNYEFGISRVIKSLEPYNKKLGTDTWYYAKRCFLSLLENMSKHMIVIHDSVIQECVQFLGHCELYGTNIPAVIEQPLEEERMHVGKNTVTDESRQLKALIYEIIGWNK


Tests used:
[1] = molecular target: T1, endogenously FLAG-tagged TTC30B (human (endogenous in HEK293T)); assay: affinity purification with mass spectrometry; anti-Flag-M2-agarose beads on lysates of endogenously FLAG-tagged TTC30A or TTC30B HEK293T cells, serum starved for 16 h; elution with Flag-peptide; label-free LC-MS/MS; six biological replicates against an untagged Cas9 empty-vector control clone
[2] = molecular target: T2, endogenously FLAG-tagged TTC30A (human (endogenous in HEK293T)); assay: as above

Molecule | binding [1] | binding [2]
CROCC/rootletin (from UniProt Q5TZA2 1-2017) | binds | –
DHX34 (protein, UniProt Q14147 1-1143) MPPPRTREGRDRRDHHRAPSEEEALEKWDWNCPETRRLLEDAFFREEDYIRQGSEECQKFWTFFERLQRFQNLKTSRKEEKDPGQPKHSIPALADLPRTYDPRYRINLSVLGPATRGSQGLGRHLPAERVAEFRRALLHYLDFGQKQAFGRLAKLQRERAALPIAQYGNRILQTLKEHQVVVVAGDTGCGKSTQVPQYLLAAGFSHVACTQPRRIACISLAKRVGFESLSQYGSQVGYQIRFESTRSAATKIVFLTVGLLLRQIQREPSLPQYEVLIVDEVHERHLHNDFLLGVLQRLLPTRPDLKVILMSATINISLFSSYFSNAPVVQVPGRLFPITVVYQPQEAEPTTSKSEKLDPRPFLRVLESIDHKYPPEERGDLLVFLSGMAEISAVLEAAQTYASHTQRWVVLPLHSALSVADQDKVFDVAPPGVRKCILSTNIAETSVTIDGIRFVVDSGKVKEMSYDPQAKLQRLQEFWISQASAEQRKGRAGRTGPGVCFRLYAESDYDAFAPYPVPEIRRVALDSLVLQMKSMSVGDPRTFPFIEPPPPASLETAILYLRDQGALDSSEALTPIGSLLAQLPVDVVIGKMLILGSMFSLVEPVLTIAAALSVQSPFTRSAQSSPECAAARRPLESDQGDPFTLFNVFNAWVQVKSERSRNSRKWCRRRGIEEHRLYEMANLRRQFKELLEDHGLLAGAQAAQVGDSYSRLQQRRERRALHQLKRQHEEGAGRRRKVLRLQEEQDGGSSDEDRAGPAPPGASDGVDIQDVKFKLRHDLAQLQAAASSAQDLSREQLALLKLVLGRGLYPQLAVPDAFNSSRKDSDQIFHTQAKQGAVLHPTCVFAGSPEVLHAQELEASNCDGSRDDKDKMSSKHQLLSFVSLLETNKPYLVNCVRIPALQSLLLFSRSLDTNGDCSRLVADGWLELQLADSESAIRLLAASLRLRARWESALDRQLAHQAQQQLEEEEEDTPVSPKEVATLSKELLQFTASKIPYSLRRLTGLEVQNMYVGPQTIPATPHLPGLFGSSTLSPHPTKGGYAVTDFLTYNCLTNDTDLYSDCLRTFWTCPHCGLHAPLTPLERIAHENTCPQAPQDGPPGAEEAALETLQKTSVLQRPYHCEACGKDFLFTPTEVLRHRKQHV | – | binds
